Data reported in PubChem BioAssay AID1347076 (National Center for Advancing Translational Sciences (NCATS), 2019).
About 13,000 (3.2%) of roughly 400,000 compounds were called active. The inconclusive results got no clear call from the source; some entries with a clear call stand among them for comparison. Calls come from the whole dose curve; as a rule, active = well fitted cell-killing curve with a large enough effect; inconclusive = small, poorly fitted or top-dose-only effect, or effect the other way; inactive = flat fitted curve, though single readings scatter. Potencies beside an inconclusive call are fits to weak or partial responses and may not hold up.
% is set by controls: 0 for no effect and ±100 for the full control effect; potency is the fitted concentration of half-maximal effect.

Assay: qHTS assay for MDR1-selective chemotherapeutics: Primary screen using the drug-selected MDR subline cells KB-V1; note: nearly all actives have a fitted effect of over 60% in size
Conditions: KB-V1 MDR cells viability, CellTiter-Glo, 72 h; activity change, negative = cytotoxicity: at 46.1 µM (top of the series)
In short: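 Following 72 h at 37 degrees C with compound, KB-V1 cell viability was read by CellTiter-Glo luminescence, medium being phenol-red-free DMEM plus 10% FBS; concentration-response parameters came from normalized, curve-fitted qHTS data.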
With O=C(CCC1CCCN(C(=O)C2=CCCC2)C1)N1CCN(c2ccccn2)CC1 (centres undefined) the Potency was “inactive”. With CCN(CC(=O)Nc1ccc(NC(C)=O)cc1)C(=O)CN1C(=O)NC(C)(c2ccc3ccccc3c2)C1=O (centres undefined) the Potency was “inactive”. In the case of O=CN1Cc2[nH]c3ccccc3c2N(c2ccc(Cl)cc2)C1=O, the Potency is reported as “inactive”. With CCN(CC)C(=O)Cn1c(=O)n(CCC(=O)Nc2ccc(F)cc2)c(=O)c2sccc21 the Potency was “inactive”. In the case of CN(C)c1cc2c(cc1NS(=O)(=O)c1ccccc1)n(C)c(=O)n2C, the Potency is reported as inconclusive: 25.9 µM [rising, partial curve, poor fit]. With O=C(CN1CCCC1)Nc1cc(C(F)(F)F)cc(C(F)(F)F)c1 the Potency was inconclusive: 29.1 µM [rising, single point]. For Cn1c(Cc2cccc3ccccc23)nnc1SCC(=O)N1CCN(c2ccccc2)CC1, the Potency was active: 14.6 µM. For COc1ccc(CNC(=O)c2cc3c(=O)n4ccccc4nc3n(CC3CCCO3)c2=N)cc1 (centres undefined), the Potency was inconclusive: 29.1 µM [cytotoxic, single point]. For O=C(C(c1ccccc1)C(O)c1ccccc1)N1CCOCC1 (centres undefined), the Potency was “inactive”. With COc1cccc(CSc2nc3n(n2)C(c2cccc(F)c2)C(C(=O)Nc2ccccc2C)=C(C)N3)c1 (centres undefined) the Potency was inconclusive: 10.3 µM [rising, partial curve]. With COc1ccc(CNC(=O)CCCn2nc(C)c([N+](=O)[O-])c2C)cc1OC the Potency was inconclusive: 23.1 µM [cytotoxic, partial curve, poor fit]. With CCOC(=O)CSc1nc2c(cnn2-c2ccc(Cl)cc2)c(=O)[nH]1 the Potency was inconclusive: 18.4 µM [rising, single point]. In the case of Cc1cc(C(=O)CN2C(=O)C(=O)N(Cc3ccco3)C2=O)c(C)n1CCc1ccccc1, the Potency is reported as active: 16.4 µM. With Cc1ccc(O)c(NC(=O)c2cc(-c3ccc4c(c3)OCO4)on2)c1 the Potency was inconclusive: 20.6 µM [rising, single point]. In the case of CCc1nc2ccc(C(=O)Nc3cccc(OC)c3)cn2c1N(CC)CCN(C)C, the Potency is reported as “inactive”. For C/C(=N\NC(=O)C1COc2ccccc2O1)c1ccc(C)o1 (centres undefined), the Potency was “inactive”. In the case of O=S(=O)(NCc1cc(-c2ccccc2)no1)c1ccccc1Cl, the Potency is reported as inconclusive: 18.4 µM [rising, partial curve, poor fit]. In the case of O=C(NCCc1ccc(Cl)cc1)C1CCN(S(=O)(=O)c2ccc(Br)s2)CC1, the Potency is reported as inconclusive: 10.3 µM [cytotoxic, partial curve, poor fit]. For COc1ccc(CN(C(=O)Nc2cccc(Cl)c2)c2ccccn2)cc1OC, the Potency was inconclusive: 18.4 µM [cytotoxic, single point]. With Nc1cccc(/C=C/c2ccnc3ccccc23)c1 the Potency was inconclusive: 8.2 µM [cytotoxic, partial curve]. With O=C(NC1CC1)C1CCCN(C(=O)NC2CCCCC2)C1 (centres undefined) the Potency was inconclusive: 3.66 µM [rising, partial curve, poor fit]. For CCOC1=C2[C@@H](CN(S(=O)(=O)c3ccc(C)cc3)[C@H]2c2ccccc2Cl)[C@H]2C(=O)N(C(C)(C)C)C(=O)[C@H]2C1, the Potency was inconclusive: 29.1 µM [cytotoxic, single point]. With Cc1ccc(CNC(=O)C(=O)NCC2OCCN2S(=O)(=O)c2ccc(Cl)cc2)cc1 (centres undefined) the Potency was inconclusive: 7.31 µM [cytotoxic, partial curve]. In the case of COCCn1c(C)cc(C(=O)CSc2nc(C)cc(C)c2C#N)c1C, the Potency is reported as inconclusive: 20.6 µM [cytotoxic, partial curve, poor fit]. In the case of C=C(C)CSc1nc(N)c(C#N)c(-c2ccc(C)cc2)c1C#N, the Potency is reported as inconclusive: 7.31 µM [cytotoxic, partial curve, poor fit]. In the case of CCC1(C)CC2(CCCN(CCC(O)(c3ccccc3)c3ccccc3)C2)CCO1 (centres undefined), the Potency is reported as inconclusive: 5.8 µM [cytotoxic, partial curve]. With COc1cccc(CNC(=O)c2cc3n(n2)CCCN(Cc2ccc(C)cc2)C3=O)c1OC the Potency was “inactive”. With O=C(c1ccc(S(=O)(=O)NCC2CCCO2)cc1)N1CCc2ccccc21 (centres undefined) the Potency was inconclusive: 18.4 µM [cytotoxic, partial curve]. For Nc1c(C(=O)NCc2ccc3c(c2)OCO3)c2nc3ccccc3nc2n1CCCN1CCOCC1, the Potency was “inactive”. For O=C(O)C1CCN(c2ccc(Cl)nn2)CC1, the Potency was “inactive”. For Fc1ccc(CSc2ccc(-c3ccc4c(c3)OCO4)nn2)cc1, the Potency was inconclusive: 29.1 µM [cytotoxic, single point]. In the case of c1ccc2c(OCCCCN3CCCC3)cccc2c1, the Potency is reported as “inactive”. For CC(=O)N1CCN(c2ccc([N+](=O)[O-])cc2C#N)CC1, the Potency was inconclusive: 0.651 µM [rising, full curve, poor fit]. In the case of CCCc1nc(SCC(=O)NC2CCCC2)c2ccccc2n1, the Potency is reported as “inactive”. With CC1CCC2(CC1)NC(=O)c1ccccc1O2 (centres undefined) the Potency was “inactive”. For Cc1cccc(-c2cc3nc(C)c(C)c(NCCCn4ccnc4)n3n2)c1, the Potency was inconclusive: 23.1 µM [cytotoxic, single point]. With COCCn1c(C)cc(C2=NNC(=NC3CC3)SC2)c1C the Potency was inconclusive: 14.6 µM [cytotoxic, partial curve, poor fit]. For COc1cccc(CN2CCC2(C)C(=O)Nc2cnc3ccccc3c2)c1F (centres undefined), the Potency was inconclusive: 23.1 µM [cytotoxic, single point]. With COC(=O)C1=C(C)N(Cc2ccccc2)C(=NCc2ccccc2)N[C@H]1c1ccccc1 the Potency was inconclusive: 32.6 µM [cytotoxic, partial curve, poor fit]. With COC(=O)c1ccc(Cn2c(C)c(C(=O)NCc3cccc(C(F)(F)F)c3)sc2=O)o1 the Potency was inconclusive: 20.6 µM [cytotoxic, partial curve]. For O=C(O)CCn1nnc2ccccc21, the activity change, negative = cytotoxicity was inconclusive: 38.3%. For Cc1cccc(-c2nnc3n(CCc4ccccc4)c(=O)c4ccccc4n23)c1, the Potency was “inactive”. In the case of CCOc1ccc(-n2c(SCC(=O)NCc3ccco3)nc3c([nH]c4ccccc43)c2=O)cc1, the Potency is reported as inconclusive: 16.4 µM [cytotoxic, partial curve, poor fit]. With C/C=C/c1ccc(OCCOc2cc(C=O)ccc2OC)c(OC)c1 the Potency was active: 14.6 µM. In the case of O=P(C(=S)Nc1ccccc1Cl)(c1ccccc1)c1ccccc1, the Potency is reported as inconclusive: 23.1 µM [cytotoxic, single point]. In the case of COc1ccccc1-c1nnc(SCC(=O)NC2CCS(=O)(=O)C2)n1N (centres undefined), the Potency is reported as inconclusive: 23.1 µM [rising, single point]. For CC1=CC(C)(C)N(C(=O)CSc2nnc(-c3ccc(C)cc3)o2)c2ccc(C)cc21, the Potency was active: 8.2 µM. For C[N+]1(CC(=O)c2c3ccccc3cc3ccccc23)CCOCC1, the Potency was “inactive”. In the case of CCCCc1c(-c2cccc(OC)c2)ncn1CCc1ccccc1OC, the Potency is reported as active: 11.6 µM. For COc1cc(CNc2ncnc3c2ncn3[C@H]2CN(Cc3cccc4ccccc34)C[C@@H](CO)O2)cc(OC)c1OC, the Potency was active: 20.6 µM. In the case of OC[C@@H]1CN(Cc2cccc(C(F)(F)F)c2)C[C@H](n2cnc3c(NC4CC4)ncnc32)O1, the Potency is reported as “inactive”. For Cc1ccc(-n2c3nc(=O)[nH]c(=O)c-3cc3c(Cl)cccc32)cc1, the Potency was inconclusive: 25.9 µM [cytotoxic, partial curve]. In the case of CC(C)C(=O)Nc1ccc(C(=O)NNC(=S)NC(=O)c2cccs2)cc1, the Potency is reported as inconclusive: 7.31 µM [cytotoxic, partial curve]. With O=C1c2ccccc2C(=O)c2c([N+](=O)[O-])ccc(O)c21 the Potency was inconclusive: 5.8 µM [cytotoxic, full curve]. For Cc1ccc(C)c(S(=O)(=O)NCCCn2ccnc2)c1, the Potency was inconclusive: 29.1 µM [rising, single point]. With Cc1ccc(-c2n[nH]c(=S)n2C)cc1 the Potency was active: 16.4 µM. With O=C(COC(=O)c1ccc(F)cc1F)c1ccc[nH]1 the Potency was inconclusive: 32.6 µM [rising, partial curve, poor fit]. For COc1ccc(NC(=O)c2cc(C3CCCCN3C(=O)c3ccc4c(c3)CCO4)on2)c(C)c1 (centres undefined), the Potency was inconclusive: 20.6 µM [cytotoxic, single point]. For CCn1nc(C)cc1C(=O)n1nc(C)c(Sc2ncccn2)c1C, the Potency was “inactive”. For COc1ccc(NC(=O)[C@H](C)NC(=O)C2CCN(S(=O)(=O)c3ccc(C)cc3)CC2)cc1, the Potency was inconclusive: 0.0073 µM [cytotoxic, full curve, poor fit]. With C#CCOCCOCCOCCNc1nc(N2CCN(C(=O)CCCCCCCCCCNC(=O)Cn3cc(CCCCCN)nn3)CC2)nc(N2CCN(C(=O)CCCCCCCCCCNC(=O)[C@H]([C@@H](C)CC)n3cc(CCCCN=C(N)N)nn3)CC2)n1 the Potency was inconclusive: 25.9 µM [cytotoxic, single point]. In the case of CCOc1ccc(S(=O)(=O)NCc2cccs2)cc1C(C)C, the Potency is reported as “inactive”. In the case of Cc1ccc(C2(C)NC(=O)N(CC(=O)N3CCc4ccccc43)C2=O)cc1 (centres undefined), the Potency is reported as inconclusive: 16.4 µM [cytotoxic, partial curve, poor fit]. For COc1ccc(C(CC(=O)Nc2cc([N+](=O)[O-])ccc2OC)c2ccccc2)cc1 (centres undefined), the activity change, negative = cytotoxicity was inconclusive: -102%. For CCCCn1c2ccccc2c2nnc(SCC(=O)Nc3ccc(NC(C)=O)cc3)nc21, the Potency was “inactive”. With CCCCn1c(=N)n(CC(O)COc2ccccc2)c2ccccc21 (centres undefined) the Potency was active: 20.6 µM. With CCCn1nc(NC(=O)c2ccccn2)c2cc3cc(C)ccc3nc21 the Potency was “inactive”. In the case of CCOC(=O)N1CCN(CC(=O)Nc2nc3ccc(OC)cc3s2)CC1, the Potency is reported as “inactive”. For Cc1cc(Br)c(OCc2ccc(C(=O)N/N=C/c3ccc[nH]3)cc2)c(Br)c1, the Potency was inconclusive: 29.1 µM [cytotoxic, single point].
